Data taken from the supplement of paper PMC3334620.
Whole data set: some 33,000 sequences, median “E-score (-0.5 to 0.5)” near -0.0034, cut for the highest 2% near 0.25. The list shows a part of the results.

These sequences were tested against T1, Yap3 (UniProt P38749) (assay: PBM E-score (8-mer binding enrichment) (E-score (-0.5 to 0.5)); higher = stronger / more preferred TF binding). Conditions: protein concentration: 100 nM; construct: GST-full length.
T1 sequence: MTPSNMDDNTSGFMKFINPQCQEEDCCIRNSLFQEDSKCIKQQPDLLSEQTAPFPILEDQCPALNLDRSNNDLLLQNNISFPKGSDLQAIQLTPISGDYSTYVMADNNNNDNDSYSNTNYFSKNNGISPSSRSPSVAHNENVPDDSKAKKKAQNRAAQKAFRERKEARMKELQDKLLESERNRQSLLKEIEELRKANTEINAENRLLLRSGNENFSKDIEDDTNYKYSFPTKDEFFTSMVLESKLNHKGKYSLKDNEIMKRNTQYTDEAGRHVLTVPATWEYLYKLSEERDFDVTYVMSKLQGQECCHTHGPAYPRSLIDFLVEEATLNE
Outline: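 Yeast transcription factors, full-length or as DNA-binding domains, were expressed with a GST tag using PURExpress in vitro transcription/translation. At about 100-200 nM they were applied to universal all-10-mer Agilent arrays, double-stranded by primer extension on fresh or once-stripped slides. Fluorescent anti-GST detected bound protein, and masliner normalised the scans. E-scores for ungapped eight-base words, pooled with reverse complements, came from the Universal PBM Analysis Suite.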

Point of comparison: TGACGCAA, “PBM E-score” value 0.0236. Against it:
- AATGAACC — higher, 0.0718
- ACCACCGT — lower, -0.246
- AATATTCC — higher, 0.281
- ACGGGGGG — lower, -0.426
- AATATGCT — higher, 0.187
- ACGAATCA — higher, 0.112
- CGGCCATC — lower, -0.203
- CAATCCTC — lower, -0.105
- TAATGTGA — higher, 0.241
- ATGGAGCC — lower, -0.122
- AGTGGGGG — lower, -0.353
- AGAAGTTG — lower, -0.0735
- CCAGCTTA — lower, -0.0581
- AATATAAG — higher, 0.353
- GGCAGAGA — lower, -0.00962
- CACCGGCG — lower, -0.0582
- AATACTGT — higher, 0.209
- AACCTGAT — higher, 0.0859
- AACTGCAT — higher, 0.18
- AGATATTG — higher, 0.174
- AACTCCTA — lower, -0.00383
- CCGTTTGC — higher, 0.0816
- GAGGACTC — lower, -0.311
- CCCCGGGC — lower, -0.413
- CTGTGGAC — lower, 0.021
- CAAGGCAC — lower, -0.172
- GTAGTTCA — higher, 0.0513
- AAGCACTG — higher, 0.174
- TATAAGCA — higher, 0.181
- GTACCTGA — lower, -0.0323
- ACTAAAGA — lower, -0.105
- CAGTTTTA — higher, 0.112
- ACCCTAGA — higher, 0.0326
- CTACCAAC — higher, 0.0332
- CGTGAGGA — lower, -0.0432
- ACTCAACA — higher, 0.183
- GGACCGCA — lower, -0.228
- AGACGCAG — lower, -0.0583
- CTTACCGC — lower, -0.12
- GCCAATGA — lower, -0.177
- GACGCTGC — lower, -0.0366
- AGTTACCC — lower, 0.00326
- ATCCGGTA — higher, 0.033
- AGAATTTC — lower, -0.00706
- ATGTCCAG — lower, -0.0592
- AGAGATGC — lower, -0.117
- ATCCGGAT — higher, 0.155
- ACATCAAA — higher, 0.087
- CCAAAGGA — lower, -0.024
- GGATCGAC — lower, -0.0983
- ACCGTACG — lower, -0.0368
- ACAACCCT — lower, -0.0399
- ATTTGAAA — higher, 0.205
- ATCAGGAT — higher, 0.0628
- CTTCAAAG — lower, -0.0592
- CCAGGTAG — lower, -0.0675
- CAGTCCAC — lower, -0.126
- CGACGTAG — lower, -0.305
- ATGTACAG — lower, -0.0314
- CAATTCGA — lower, -0.102
- GCTTATCC — higher, 0.131
- GCAGATCA — lower, -0.105
- CCTCTACG — lower, -0.219
- CAATAAGG — lower, 0.018
- GCAATTAC — higher, 0.102
- TAATCAAA — higher, 0.285
- AAACCTAT — higher, 0.0756
- ATGGCGGC — lower, -0.123
- ACTGACCA — lower, -0.125
- AAACCAAC — lower, -0.115
- ATTATAGG — higher, 0.158
- AATTACAC — higher, 0.187
- ATCGTATA — higher, 0.114
- CAAGTGCA — lower, -0.198
- ACACCAAT — higher, 0.202
- CTATATGA — higher, 0.142
- TCCTGACA — higher, 0.0799
- ACCAGGAT — higher, 0.172
- CCTCCGGC — lower, -0.256
- CACCTTCG — lower, -0.146
- GGGTATAC — higher, 0.034
- GCGGACTA — lower, -0.0591
- CGAATTAG — higher, 0.135
- AACGTGCG — lower, -0.0415
- ATAAGTGG — higher, 0.0608
- CGCACCAC — lower, -0.131
- CTACTTCA — lower, -0.0894
- TCGCTGAA — higher, 0.0842
- TCGCACAA — lower, -0.00784
- AGGCGGAA — higher, 0.0524
- GGGCGGTA — lower, -0.21
- AGGCAACA — lower, -0.0941
- ATGTAGGC — higher, 0.0427
- ATACATTG — higher, 0.18
- AGAGCGTC — lower, -0.109
- GGCAGCTA — higher, 0.0423
- GTGCATCA — lower, -0.00364
- AGGTCAAT — higher, 0.147
- CCACGGTC — lower, -0.204
- ACGACCAT — lower, -0.0854
- CCAACCCA — lower, -0.189
- ATTCAGGC — lower, -0.009
- ACACGGTG — lower, -0.0609
- CGGATCGA — lower, -0.088
- AAAGGCGA — lower, -0.16
- GGCGCTAC — lower, -0.299
- TATCTGGA — lower, -0.0885
- ACTTCTAC — higher, 0.05
- AGCGTGTC — lower, -0.219
- CGCCGACA — lower, -0.0696
- CACGCCGC — lower, -0.212
- ACTGTACA — higher, 0.0293
- TAAAAAAA — higher, 0.0893
- GGTTGAGA — lower, -0.162
- ATTCCTAG — higher, 0.126
- ACGGCTTG — lower, -0.106
- CGGTGTGC — lower, -0.294
- AGCGGTAT — higher, 0.0682
- CAGAACTG — higher, 0.157
- AATATTCT — higher, 0.133
- CGGACCCA — lower, -0.232
- CAGCCAAC — lower, -0.132
- CTATATAA — higher, 0.121
- AAGGCAGG — lower, -0.146
- AACGTGAG — lower, -0.0657
- ATGGTGAA — higher, 0.0693
- AAAACTAA — higher, 0.298
- GCATTCCA — lower, -0.129
- ATGAATCC — higher, 0.0786
- CTGATGCA — lower, -0.0709
- CGCCGGTA — lower, -0.0569
- CACGGGAG — lower, -0.203
- CAGCCGAA — lower, -0.139
- ACGGGCCT — lower, -0.349
- AAACTATT — higher, 0.221
- GATCCGGC — lower, -0.0157
- CTCATATA — higher, 0.18
- CGCATCCC — lower, -0.277
- GTTAAGTA — higher, 0.0362
- AATATCGA — higher, 0.233
- CGTACGTA — higher, 0.148
- AGCGCAGA — lower, -0.182
- CGCGAAAC — higher, 0.121
- ATCTAGGA — higher, 0.0422
- ACAAGCGT — lower, -0.0211
- ATGATAAG — higher, 0.233
- AATAAGGT — higher, 0.0306
- CCGATGAC — higher, 0.0246
- CCACTCGG — lower, -0.229
- TATACGCA — higher, 0.0612
- AGTCGCGC — higher, 0.119
- ACAGCGAT — lower, -0.106
- CGTCCTGC — lower, -0.239
- CGATGACC — lower, -0.041
- ATCTTTAG — higher, 0.0351
- CCAGTGCG — lower, -0.204
- CATGTTGC — lower, -0.0984
- ACCAATTC — higher, 0.149
- CGGCTCCA — lower, -0.066
- CAAACAGA — higher, 0.176
- ATTCCGCC — higher, 0.132
- AGATTCTA — lower, -0.0221
- ACCCGTAT — higher, 0.0604
- GCGTCTAC — lower, -0.136
- AGGCTTAG — lower, -0.0415
- GCAAGGAA — higher, 0.0864
- CAAAGTAC — higher, 0.0306
- CACGAATA — higher, 0.192
- AATTAAAC — higher, 0.139
- CTATCCGC — higher, 0.027
- GACCCAGC — lower, -0.188
